Source: article PMC8552907

The chains behind the UniProt entries cited, without tags or fusion partners. Where a name states a change or a piece, a line headed by the entry shows the natural chain unless it says otherwise.
UniProt O15393: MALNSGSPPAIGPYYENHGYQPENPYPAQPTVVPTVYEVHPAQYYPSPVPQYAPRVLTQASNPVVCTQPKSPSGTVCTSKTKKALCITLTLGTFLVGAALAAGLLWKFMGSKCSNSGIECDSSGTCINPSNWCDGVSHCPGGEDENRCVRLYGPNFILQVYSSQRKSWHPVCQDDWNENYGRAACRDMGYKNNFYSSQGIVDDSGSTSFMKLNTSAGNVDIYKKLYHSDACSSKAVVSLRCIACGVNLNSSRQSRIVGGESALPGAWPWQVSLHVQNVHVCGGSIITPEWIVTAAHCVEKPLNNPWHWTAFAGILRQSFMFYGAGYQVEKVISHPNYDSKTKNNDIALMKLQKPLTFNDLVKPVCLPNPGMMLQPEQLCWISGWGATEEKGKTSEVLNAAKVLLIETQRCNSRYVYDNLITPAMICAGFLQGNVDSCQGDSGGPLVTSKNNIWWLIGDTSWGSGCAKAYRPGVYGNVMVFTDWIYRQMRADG
UniProt P07711: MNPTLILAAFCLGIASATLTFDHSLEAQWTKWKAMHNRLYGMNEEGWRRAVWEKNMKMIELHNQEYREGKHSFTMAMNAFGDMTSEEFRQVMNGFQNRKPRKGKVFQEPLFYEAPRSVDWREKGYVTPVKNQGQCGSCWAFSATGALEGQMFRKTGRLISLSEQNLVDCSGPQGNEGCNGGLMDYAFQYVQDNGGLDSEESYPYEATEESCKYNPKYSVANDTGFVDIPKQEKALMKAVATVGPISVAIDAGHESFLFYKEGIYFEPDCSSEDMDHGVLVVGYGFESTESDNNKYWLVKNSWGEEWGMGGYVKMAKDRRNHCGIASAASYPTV

Assays:
[1] = molecular target: MAC-tagged SARS-CoV-2 NSP14 (SARS-CoV-2) (UniProt P0DTD1); assay: affinity purification with mass spectrometry + proximity labelling
[2] = molecular target: MAC-tagged SARS-CoV-2 NSP13 (SARS-CoV-2) (UniProt P0DTD1); assay: as above
[3] = molecular target: MAC-tagged SARS-CoV-2 NSP5 (SARS-CoV-2) (UniProt P0DTD1); assay: as above
[4] = molecular target: MAC-tagged SARS-CoV-2 NSP6 (SARS-CoV-2) (UniProt P0DTD1); assay: as above
[5] = molecular target: T1, MAC-tagged DNA topoisomerase III beta (TOP3B) (human) (UniProt O95985); assay: affinity purification with mass spectrometry + proximity labelling; MAC-tagged bait in tetracycline-induced Flp-In 293 T-REx stable lines (with 50 uM biotin for 24 h for BioID); one-step purification of the lysate on Strep-Tactin Sepharose; LC-MS; high-confidence interactions at SAINTexpress BFDR <= 0.01; the text does not tell which of the two methods found each pair
T1 sequence: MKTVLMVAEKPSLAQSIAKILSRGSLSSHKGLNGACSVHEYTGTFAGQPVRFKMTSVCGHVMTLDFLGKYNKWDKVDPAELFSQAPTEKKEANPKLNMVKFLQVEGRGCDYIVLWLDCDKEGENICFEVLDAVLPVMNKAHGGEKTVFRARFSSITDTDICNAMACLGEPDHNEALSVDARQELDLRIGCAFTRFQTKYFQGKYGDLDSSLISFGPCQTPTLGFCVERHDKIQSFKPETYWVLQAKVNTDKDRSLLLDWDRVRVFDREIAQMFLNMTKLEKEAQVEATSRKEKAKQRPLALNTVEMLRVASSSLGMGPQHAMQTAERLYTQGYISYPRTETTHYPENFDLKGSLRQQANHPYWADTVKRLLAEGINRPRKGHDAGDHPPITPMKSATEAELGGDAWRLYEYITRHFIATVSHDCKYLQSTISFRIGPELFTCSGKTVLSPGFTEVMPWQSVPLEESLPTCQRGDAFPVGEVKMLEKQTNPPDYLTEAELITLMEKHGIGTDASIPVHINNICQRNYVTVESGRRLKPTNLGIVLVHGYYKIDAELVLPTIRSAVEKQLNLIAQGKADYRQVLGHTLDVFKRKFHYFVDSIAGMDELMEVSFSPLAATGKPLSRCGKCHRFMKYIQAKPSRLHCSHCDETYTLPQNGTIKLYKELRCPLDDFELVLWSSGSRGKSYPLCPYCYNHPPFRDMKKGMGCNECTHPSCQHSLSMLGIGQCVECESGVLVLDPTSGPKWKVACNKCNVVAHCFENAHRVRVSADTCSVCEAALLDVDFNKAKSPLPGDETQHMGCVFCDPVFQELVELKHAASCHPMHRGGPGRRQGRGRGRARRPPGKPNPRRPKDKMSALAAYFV

[6] = molecular target: MAC-tagged transmembrane serine protease 2 (TMPRSS2) (human) (UniProt O15393); assay: as above
[7] = molecular target: MAC-tagged cathepsin L (CTSL) (human) (UniProt P07711); assay: as above

Measured: binding

DEAD-box (DDX) RNA helicase DDX39B, endogenous prey (from UniProt Q13838 1-428) (enzyme)
binds: all assays above

DNA topoisomerase III beta (TOP3B), endogenous prey (from UniProt O95985 1-862) (enzyme)
binds: [1] | [2]

Results are given in words; binding and its absence hold for the method and conditions named. In cells and extracts the contact can be indirect. These calls come from enrichment with a bait or labelling near it, and not all partners need be listed. For part of these data: Tags and fused reporters may be left off the sequences shown.
